The list shows a part of the results. This data set is noisy: repeats of one test often differ as much as different tests do.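 Free-swimming zebrafish larvae were assessed for O-bend response probability to dark flashes (naive: first five; training: remaining flashes across four 60-flash blocks; test: later 60-flash block) and for OMR turning toward alternating leftward/rightward LED motion. Six treated larvae were compared against sixty 0.1% DMSO controls; hits required |SSMD|≥2.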

The values that follow come from the supplement of paper PMC10727501.

Holding throughout (conditions): 10 µM; pre-incubation: 30-90 min
Assay [1] relates to Danio rerio larvae (5 dpf, TLF). The experiment in a line: OMR-Perf (SSMD vs DMSO vehicle); higher = higher than vehicle (e.g. higher dark-flash O-bend response probability, or better optomotor performance).
The test system is the same in assay [2]. Nature of the assay: Prob-Test (SSMD vs DMSO vehicle); higher = higher than vehicle (e.g. higher dark-flash O-bend response probability, or better optomotor performance).
Assay [3] shares this test system. The experiment in a line: Prob-Naive (SSMD vs DMSO vehicle); higher = higher than vehicle (e.g. higher dark-flash O-bend response probability, or better optomotor performance).
Assay [4] has the same test system. Nature of the assay: Prob-Train (SSMD vs DMSO vehicle); higher = higher than vehicle (e.g. higher dark-flash O-bend response probability, or better optomotor performance).

In the case of `CS(=O)(=O)OCCCCOS(C)(=O)=O` [Busulfan], the OMR-Perf in assay [1] was found to be 0.43. In assay [2], the Prob-Test came to 0.287. This molecule had a Prob-Naive in assay [3] of -0.123. The molecule also had a Prob-Train in assay [4] of -0.172.
The molecule `Cc1cnc(NC(=O)C2=C(O)c3ccccc3S(=O)(=O)N2C)s1` [Meloxicam] came in with an OMR-Perf in assay [1] of -0.13. In addition, the Prob-Test in assay [2] was -0.941. The same molecule returned a Prob-Naive in assay [3] of 0.184. This molecule displayed a Prob-Train in assay [4] of -1.75.
Consider `N#CC[C@H](C1CCCC1)n1cc(-c2ncnc3[nH]ccc23)cn1`, for which, in assay [1], the OMR-Perf was -0.387. For the same molecule, the Prob-Test in assay [2] was found to be 0.176. This molecule returned a Prob-Naive in assay [3] of 0.564. The molecule further yielded a Prob-Train in assay [4] of -0.151.
In turn, `O=C(Cc1ccc(-c2ccc(OCCN3CCOCC3)cc2)cn1)NCc1ccccc1` showed an OMR-Perf in assay [1] of -0.961. In assay [2], the Prob-Test was -2.06. This molecule also had a Prob-Naive in assay [3] of -0.397. The Prob-Train in assay [4] was -0.69.
On the same counts, the results for `CC(C)[C@H](N)C(=O)OCC(CO)OCN1C=NC2C(=O)NC(N)=NC21.Cl` (stereo not given in full) [Valganciclovir HCl] are -0.622, -0.012, 0.478 and 0.623.
Molecule `CC(=O)C1CCC2C3C[C@H](C)C4=CC(=O)CCC4(C)C3C(O)CC12C` (stereo not given in full) [Medrysone] showed an OMR-Perf in assay [1] of -0.143. This molecule displayed a Prob-Test in assay [2] of 0.4. Further, in assay [3], the Prob-Naive was determined as 0.153. In addition, the Prob-Train in assay [4] is -0.497.
The matching figures for `Cc1ccc2c(Cl)cc(Cl)c(O)c2n1` [Chlorquinaldol]: -0.343, -0.77, -4.55 and -1.51.
The matching figures for `CN(C)c1ccc(O)c2c1C[C@@H]1C[C@H]3[C@H](N(C)C)C(O)=C(C(N)=O)C(=O)[C@@]3(O)C(O)=C1C2=O.Cl` [Minocycline HCl]: -0.0705, -0.968, 0.0912 and -0.373.
The matching figures for `C[C@@H]1[C@H](O)[C@@H](C)/C=C/C=C/C=C/C=C/C=C/C=C/C=C/[C@H](O[C@@H]2O[C@H](C)[C@@H](O)[C@H](N)[C@@H]2O)C[C@@H]2O[C@@](O)(C[C@@H](O)C[C@@H](O)[C@H](O)CC[C@@H](O)C[C@@H](O)CC(=O)O[C@H]1C)C[C@H](O)[C@@H]2C(=O)O` [Amphotericin B]: -0.267, 0.187, 0.255 and 0.133.
In the case of `COc1cc(F)c(C(C)C)cc1-c1ccc(C(F)(F)F)cc1CN1C(=O)O[C@H](c2cc(C(F)(F)F)cc(C(F)(F)F)c2)[C@H]1C` [Anacetrapib (MK-0859)], in assay [1], the OMR-Perf stood at 0.524. This molecule showed a Prob-Test in assay [2] of -0.0764. Besides, the Prob-Naive in assay [3] is 0.302. In assay [4], this molecule registered a Prob-Train of 0.0588.
On the same counts, the results for `CS(=O)(=O)c1ccc([C@@H](O)[C@@H](CO)NC(=O)C(Cl)Cl)cc1` [Thiamphenicol] are -0.308, -0.216, 0 and -0.198.
On the same counts, the results for `CCCN[C@H]1CCc2nc(N)sc2C1.Cl.Cl.O` [Pramipexole dihydrochloride monohydrate] are -0.356, 0.18, 0.131 and 0.0122.
The matching figures for `C[C@@H]1C[C@H]2[C@@H]3CCC4=CC(=O)C=C[C@]4(C)[C@]3(Cl)[C@H](O)C[C@]2(C)[C@]1(OC(=O)c1ccco1)C(=O)CCl` [Mometasone furoate]: 0.201, -0.00393, 0.0956 and -0.573.
Consider `C=CCc1cccc(/C=N/NC(=O)CN2CCN(Cc3ccccc3)CC2)c1O`, for which, in assay [1], the OMR-Perf is -0.382. In addition, the Prob-Test in assay [2] amounted to 0.164. Moreover, the Prob-Naive in assay [3] was -0.273. This molecule also showed a Prob-Train in assay [4] of 0.0395.
Take `CC(=O)Nc1cccc2c1c(Sc1ccc(Cl)cc1)c(C)n2CC(=O)O`: the OMR-Perf in assay [1] was -0.111. The Prob-Test in assay [2] was -0.209. The Prob-Naive in assay [3] was 0.105. Also, the Prob-Train in assay [4] is -0.148.
The matching figures for `Cc1cc(C)c(/C=C2\C(=O)Nc3ccccc32)[nH]1` [Semaxanib (SU5416)]: -0.0243, -0.88, -0.701 and -0.763.
Regarding `Nc1ncnc2c1ncn2[C@@H]1O[C@@H](COP(=O)(O)OP(=O)([O-])OP(=O)([O-])O)[C@@H](O)[C@H]1O.[Na+].[Na+]` [ATP (Adenosine-Triphosphate)], in assay [1], the OMR-Perf was 0.0258. The same molecule gave a Prob-Test in assay [2] of -0.132. In addition, the Prob-Naive in assay [3] was -0.142. The molecule also returned a Prob-Train in assay [4] of 0.0718.
On the same counts, the results for `C[C@@H]1[C@@H](OC(=O)CCC(=O)O)O[C@H]2O[C@@]3(C)CC[C@H]4[C@@H](C)CC[C@@H]1[C@@]24OO3` [Artesunate] are -0.0128, -0.341, -0.21 and -0.143.
On the same counts, the results for `C[N+](C)(C)CCOC(=O)CCC(=O)OCC[N+](C)(C)C.O.O.[Cl-].[Cl-]` [Succinylcholine Chloride Dihydrate] are -0.632, -0.308, 0.0516 and -0.949.
On the same counts, the results for `O=c1[nH]c(=O)n([C@@H]2C[C@H](O)[C@@H](CO)O2)cc1F` [Floxuridine] are 0.238, 0.00987, -0.468 and 0.206.
For the molecule `CNC(=O)c1ccc(-c2cnc3ncc(Cc4ccc5ncccc5c4)n3n2)cc1F`, the OMR-Perf in assay [1] was found to be 0.185. The molecule further registered a Prob-Test in assay [2] of 0.574. For the same molecule, the Prob-Naive in assay [3] was found to be 0.538. Besides, the Prob-Train in assay [4] is 0.76.
`COc1cc(NC(=O)c2ccccn2)ccc1Cl` had an OMR-Perf in assay [1] of 0.23. The same molecule came in with a Prob-Test in assay [2] of -0.627. Also, the Prob-Naive in assay [3] was -1.06. For the same molecule, the Prob-Train in assay [4] was -1.32.
The matching figures for `CN(C)/N=N/c1[nH]cnc1C(N)=O` [Dacarbazine]: -0.282, -0.233, 0.214 and -0.273.
As to `Cc1cc(C)nc(NS(=O)(=O)c2ccc(NC(=S)NC(=O)COc3ccc(Br)cc3Cl)cc2)n1`, the OMR-Perf in assay [1] is -0.587. Besides, in assay [2], the Prob-Test is -0.227. In addition, the Prob-Naive in assay [3] was -0.396. The same molecule showed a Prob-Train in assay [4] of -0.631.
The matching figures for `COc1nc(C)cnc1NS(=O)(=O)c1cccnc1-c1ccc(-c2nnco2)cc1` [Zibotentan (ZD4054)]: -0.147, 0.528, 0.29 and 0.511.
